# Results of single-concentration screens

Sequences of proteins named here, by UniProt entry; tags and fusion partners are left off. Residues count along the entry.
UniProt Q4DA54, 1-478: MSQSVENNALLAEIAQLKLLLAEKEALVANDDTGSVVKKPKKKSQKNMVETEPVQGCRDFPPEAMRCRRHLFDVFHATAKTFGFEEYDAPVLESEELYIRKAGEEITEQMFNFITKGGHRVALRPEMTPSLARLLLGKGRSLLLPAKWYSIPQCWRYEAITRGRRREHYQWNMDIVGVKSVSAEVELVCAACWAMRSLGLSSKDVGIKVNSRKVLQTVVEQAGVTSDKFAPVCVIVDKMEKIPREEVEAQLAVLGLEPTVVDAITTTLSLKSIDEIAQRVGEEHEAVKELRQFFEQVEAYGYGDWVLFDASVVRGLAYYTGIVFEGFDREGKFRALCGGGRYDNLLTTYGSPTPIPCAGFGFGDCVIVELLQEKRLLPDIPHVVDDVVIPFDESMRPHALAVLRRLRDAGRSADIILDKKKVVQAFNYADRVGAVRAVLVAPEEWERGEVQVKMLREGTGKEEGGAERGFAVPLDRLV
UniProt Q8IDJ8, 1-583: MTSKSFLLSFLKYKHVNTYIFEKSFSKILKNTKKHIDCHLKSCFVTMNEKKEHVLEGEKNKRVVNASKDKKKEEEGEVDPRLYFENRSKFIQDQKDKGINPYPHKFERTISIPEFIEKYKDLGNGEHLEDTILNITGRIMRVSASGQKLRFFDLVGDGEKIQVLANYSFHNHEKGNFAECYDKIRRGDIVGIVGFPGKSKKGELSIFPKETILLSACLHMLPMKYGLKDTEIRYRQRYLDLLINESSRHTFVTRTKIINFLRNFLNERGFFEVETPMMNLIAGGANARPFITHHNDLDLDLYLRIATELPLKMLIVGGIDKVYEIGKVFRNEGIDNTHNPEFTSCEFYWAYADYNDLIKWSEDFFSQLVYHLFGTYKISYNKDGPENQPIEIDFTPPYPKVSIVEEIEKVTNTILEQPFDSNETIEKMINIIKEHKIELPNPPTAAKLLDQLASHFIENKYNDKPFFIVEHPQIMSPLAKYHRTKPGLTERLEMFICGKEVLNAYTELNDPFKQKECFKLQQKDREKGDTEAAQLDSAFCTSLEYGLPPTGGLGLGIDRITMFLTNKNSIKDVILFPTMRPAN

Source: ChEMBL document CHEMBL3988442, “University of Dundee, Small-Polar-MMV Screening Library” (2021).

TcHisRS: 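Histidine-tRNA ligase, Trypanosoma cruzi CL Brener (UniProt Q4DA54). Enzyme assay of histidyl-tRNA synthetase; the read-out is not stated. Tested at 30 µM. Higher reads as stronger inhibition (inferred: compounds with an IC50 in retests scored well above the rest). Size under these conditions: about 69,000 compounds, about 31 of them at 50% or above in at least one test.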
PfKRS1: 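Enzyme assay of the cytosolic lysyl-tRNA synthetase in 384-well plates, read by luminescence. Target: Lysine-tRNA ligase, Plasmodium falciparum 3D7 (UniProt Q8IDJ8). Tested at 30 µM. Direction is inferred from only a few compounds that gave an IC50; most scored high, so higher reads as stronger inhibition. About 69,000 compounds were tested under these conditions; 0.071% (about 49) showed 50% or more at least once.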

Results are given as percent effect. The record does not define 0% and 100%; most values in the screen are far below 50% and negative numbers occur (in some assays of this library far below -100). This is an unselected part of the compounds tested.

{"compound": "CC(=O)Nc1nc(CN2CCOC(Cn3cncn3)C2)cs1", "stereo": "stereo unspecified", "TcHisRS": 4.373, "PfKRS1": 0.05419}
{"compound": "Cc1cnn(C2(C(=O)O)CCN(c3ccnc4cc(Cl)ccc34)CC2)c1", "TcHisRS": 3.743, "PfKRS1": -2.476}
{"compound": "CCn1c(CN(C)Cc2cnc(C)s2)nc2cc(F)ccc21", "TcHisRS": 6.433, "PfKRS1": -7.807}
{"compound": "CN(Cc1ccco1)C(=O)CN1CCCCC1Cn1cccn1", "stereo": "stereo unspecified", "TcHisRS": -7.17, "PfKRS1": 2.955}
{"compound": "CNC(=O)c1cc2c(nc1NCC(C)C)CCN(CC1CC1)CC2", "TcHisRS": 4.348, "PfKRS1": 1.402}
{"compound": "Cn1ccnc1CNC1CCCN(Cc2noc(C3CC3)n2)C1", "stereo": "stereo unspecified", "TcHisRS": -0.8333, "PfKRS1": -2.035}
{"compound": "CC(C)NC(=O)c1ccc2c(c1)nc1n2CCN(Cc2ccco2)C1", "TcHisRS": 2.484, "PfKRS1": 7.058}
{"compound": "COc1ncccc1NC(=O)N1CCC(CN2CCOCC2)CC1", "TcHisRS": 0.4149, "PfKRS1": -0.2892}
{"compound": "CC(C)Nc1nc2c(cc1C(=O)NCC1CC1)CCN(CC1CC1)CC2", "TcHisRS": 2.97, "PfKRS1": 5.667}
{"compound": "O=S1(=O)NCC2(CCCN(Cc3ccccn3)C2)Oc2ncccc21", "stereo": "stereo unspecified", "TcHisRS": 0.5917, "PfKRS1": 2.848}
{"compound": "COCCN1CCC(CNC(=O)C2(c3ccc(F)cc3)CCC2)CC1", "TcHisRS": 4.046, "PfKRS1": 1.722}
{"compound": "CC(Cn1cccn1)C(=O)N1CCCN(Cc2cscn2)CC1", "stereo": "stereo unspecified", "TcHisRS": 1.98, "PfKRS1": 0.4366}
{"compound": "CN(C)CCN(Cc1ccc(Cl)cc1)C(=O)c1ccncc1", "TcHisRS": 4.926, "PfKRS1": 3.915}
{"compound": "Fc1ccc(-c2nccnc2C2CCCNC2)cc1", "stereo": "stereo unspecified", "TcHisRS": 1.521, "PfKRS1": 0.2127}
{"compound": "CCN(C(=O)CN1CCCC1c1c(C)nn(C)c1OC)C1CC1", "stereo": "stereo unspecified", "TcHisRS": 1.739, "PfKRS1": 0.7843}
{"compound": "CCOCCN1CCN(CC(=O)N2CCCC2)CC1CC", "stereo": "stereo unspecified", "TcHisRS": 1.433, "PfKRS1": -0.7576}
{"compound": "Cc1c(CC(=O)N2CCN(CC(F)(F)F)CC2)nnn1-c1ccccc1", "TcHisRS": 0, "PfKRS1": 6.238}
{"compound": "CC(C)c1nccn1C(C)C(=O)NCc1noc(Cc2cccs2)n1", "stereo": "stereo unspecified", "TcHisRS": -1.932, "PfKRS1": 3.637}
{"compound": "CCN(CC1CN(Cc2ccn(C(C)C)n2)CCO1)c1cccnn1", "stereo": "stereo unspecified", "TcHisRS": 10, "PfKRS1": 6.633}
{"compound": "Cc1nc(CN2C[C@@H]3OCCN(c4ncc(F)cn4)[C@@H]3C2)cs1", "TcHisRS": 0.5405, "PfKRS1": 2.8}
{"compound": "Cc1ccc(C(NC(=O)[C@H]2CC[C@@H](O)CC2)c2cccnc2)cc1C", "stereo": "stereo partly specified", "TcHisRS": -1.245, "PfKRS1": 7.408}
{"compound": "Cc1cccc(C(=O)NCCCN2CCc3ccccc3C2)c1C", "TcHisRS": 3.955, "PfKRS1": 0.7311}
{"compound": "Cc1cc(C)n(-c2ccc(C(=O)NCC(CO)Cc3ccco3)cc2)n1", "stereo": "stereo unspecified", "TcHisRS": 4.478, "PfKRS1": 5.1}
{"compound": "O=C(c1cnco1)N1C[C@@H](O)[C@H](Oc2cccc(F)c2)C1", "TcHisRS": 5.993, "PfKRS1": -0.7074}
{"compound": "Cc1noc(Cl)c1CC(=O)NCCOc1ccc(F)cc1F", "TcHisRS": 6.383, "PfKRS1": 4.722}

Repeated from the top, 2 entries:

CC(=O)Nc1nc(CN2CCOC(Cn3cncn3)C2)cs1 (stereo unspecified) read TcHisRS: 4.373%; PfKRS1: 0.05419%.
Cc1cnn(C2(C(=O)O)CCN(c3ccnc4cc(Cl)ccc34)CC2)c1 read TcHisRS: 3.743%; PfKRS1: -2.476%.